Source: PMC3226675
These are yes or no findings as the source states them, for the method shown. Binding seen in cells or lysates may run through a third protein. Some binding calls cover weakened binding; strength is not graded here.

T1: endogenous Stau2 (HeLa cells) (human (endogenous in HeLa)) (UniProt Q9NUL3)
T1 sequence: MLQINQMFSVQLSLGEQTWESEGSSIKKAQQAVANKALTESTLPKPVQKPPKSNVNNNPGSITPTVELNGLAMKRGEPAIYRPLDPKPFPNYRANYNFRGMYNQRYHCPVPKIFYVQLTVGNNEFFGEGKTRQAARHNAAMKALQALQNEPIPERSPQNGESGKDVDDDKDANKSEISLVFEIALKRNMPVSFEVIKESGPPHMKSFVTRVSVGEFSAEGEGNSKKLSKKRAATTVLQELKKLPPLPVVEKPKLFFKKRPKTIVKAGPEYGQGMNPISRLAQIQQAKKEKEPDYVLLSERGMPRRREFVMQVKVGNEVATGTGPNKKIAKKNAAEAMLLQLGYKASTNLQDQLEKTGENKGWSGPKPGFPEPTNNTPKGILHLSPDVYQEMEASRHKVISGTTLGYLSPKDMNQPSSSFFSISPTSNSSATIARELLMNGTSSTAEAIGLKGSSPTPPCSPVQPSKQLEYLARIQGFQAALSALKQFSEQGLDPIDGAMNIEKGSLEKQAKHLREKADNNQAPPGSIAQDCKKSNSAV


Molecular target: T1, endogenous Stau2 (HeLa cells) (human (endogenous in HeLa))
Assay: co-IP; HeLa lysate treated with RNase A (20 ug/ml); rabbit anti-hStau2 antibody or rabbit IgG, Protein G Sepharose; 20 mM Tris-HCl pH 7.5, 150 mM NaCl, 1 mM DTT, 0.5% Tween 20; Western blotting

| Binder | binding |
| --- | --- |
| Upf1, endogenous in HeLa cells (protein, UniProt Q92900 1-1129) MSVEAYGPSSQTLTFLDTEEAELLGADTQGSEFEFTDFTLPSQTQTPPGGPGGPGGGGAGGPGGAGAGAAAGQLDAQVGPEGILQNGAVDDSVAKTSQLLAELNFEEDEEDTYYTKDLPIHACSYCGIHDPACVVYCNTSKKWFCNGRGNTSGSHIVNHLVRAKCKEVTLHKDGPLGETVLECYNCGCRNVFLLGFIPAKADSVVVLLCRQPCASQSSLKDINWDSSQWQPLIQDRCFLSWLVKIPSEQEQLRARQITAQQINKLEELWKENPSATLEDLEKPGVDEEPQHVLLRYEDAYQYQNIFGPLVKLEADYDKKLKESQTQDNITVRWDLGLNKKRIAYFTLPKTDSGNEDLVIIWLRDMRLMQGDEICLRYKGDLAPLWKGIGHVIKVPDNYGDEIAIELRSSVGAPVEVTHNFQVDFVWKSTSFDRMQSALKTFAVDETSVSGYIYHKLLGHEVEDVIIKCQLPKRFTAQGLPDLNHSQVYAVKTVLQRPLSLIQGPPGTGKTVTSATIVYHLARQGNGPVLVCAPSNIAVDQLTEKIHQTGLKVVRLCAKSREAIDSPVSFLALHNQIRNMDSMPELQKLQQLKDETGELSSADEKRYRALKRTAERELLMNADVICCTCVGAGDPRLAKMQFRSILIDESTQATEPECMVPVVLGAKQLILVGDHCQLGPVVMCKKAAKAGLSQSLFERLVVLGIRPIRLQVQYRMHPALSAFPSNIFYEGSLQNGVTAADRVKKGFDFQWPQPDKPMFFYVTQGQEEIASSGTSYLNRTEAANVEKITTKLLKAGAKPDQIGIITPYEGQRSYLVQYMQFSGSLHTKLYQEVEIASVDAFQGREKDFIILSCVRANEHQGIGFLNDPRRLNVALTRARYGVIIVGNPKALSKQPLWNHLLNYYKEQKVLVEGPLNNLRESLMQFSKPRKLVNTINPGARFMTTAMYDAREAIIPGSVYDRSSQGRPSSMYFQTHDQIGMISAGPSHVAAMNIPIPFNLVMPPMPPPGYFGQANGPAAGRGTPKGKTGRGGRQKNRFGLPGPSQTNLPNSQASQDVASQPFSQGALTQGYISMSQPSQMSQPGLSQPELSQDSYLGDEFKSQIDVALSQDSTYQGERAYQHGGVTGLSQY | binds |
| Mov10, endogenous in HeLa cells (protein, UniProt Q9HCE1 1-1003) MPSKFSCRQLREAGQCFESFLVVRGLDMETDRERLRTIYNRDFKISFGTPAPGFSSMLYGMKIANLAYVTKTRVRFFRLDRWADVRFPEKRRMKLGSDISKHHKSLLAKIFYDRAEYLHGKHGVDVEVQGPHEARDGQLLIRLDLNRKEVLTLRLRNGGTQSVTLTHLFPLCRTPQFAFYNEDQELPCPLGPGECYELHVHCKTSFVGYFPATVLWELLGPGESGSEGAGTFYIARFLAAVAHSPLAAQLKPMTPFKRTRITGNPVVTNRIEEGERPDRAKGYDLELSMALGTYYPPPRLRQLLPMLLQGTSIFTAPKEIAEIKAQLETALKWRNYEVKLRLLLHLEELQMEHDIRHYDLESVPMTWDPVDQNPRLLTLEVPGVTESRPSVLRGDHLFALLSSETHQEDPITYKGFVHKVELDRVKLSFSMSLLSRFVDGLTFKVNFTFNRQPLRVQHRALELTGRWLLWPMLFPVAPRDVPLLPSDVKLKLYDRSLESNPEQLQAMRHIVTGTTRPAPYIIFGPPGTGKTVTLVEAIKQVVKHLPKAHILACAPSNSGADLLCQRLRVHLPSSIYRLLAPSRDIRMVPEDIKPCCNWDAKKGEYVFPAKKKLQEYRVLITTLITAGRLVSAQFPIDHFTHIFIDEAGHCMEPESLVAIAGLMEVKETGDPGGQLVLAGDPRQLGPVLRSPLTQKHGLGYSLLERLLTYNSLYKKGPDGYDPQFITKLLRNYRSHPTILDIPNQLYYEGELQACADVVDRERFCRWAGLPRQGFPIIFHGVMGKDEREGNSPSFFNPEEAATVTSYLKLLLAPSSKKGKARLSPRSVGVISPYRKQVEKIRYCITKLDRELRGLDDIKDLKVGSVEEFQGQERSVILISTVRSSQSFVQLDLDFNLGFLKNPKRFNVAVTRAKALLIIVGNPLLLGHDPDWKVFLEFCKENGGYTGCPFPAKLDLQQGQNLLQGLSKLSPSTSGPHSHDYLPQEREGEGGLSLQVEPEWRNEL | binds |
